35 targets from the supplement of paper PMC10849652 can be followed below.

Sequences of proteins named here, by UniProt entry; tags and fusion partners are left off. A change or cut given only in a name is not applied to a line headed by its entry.
UniProt Q6NXT1: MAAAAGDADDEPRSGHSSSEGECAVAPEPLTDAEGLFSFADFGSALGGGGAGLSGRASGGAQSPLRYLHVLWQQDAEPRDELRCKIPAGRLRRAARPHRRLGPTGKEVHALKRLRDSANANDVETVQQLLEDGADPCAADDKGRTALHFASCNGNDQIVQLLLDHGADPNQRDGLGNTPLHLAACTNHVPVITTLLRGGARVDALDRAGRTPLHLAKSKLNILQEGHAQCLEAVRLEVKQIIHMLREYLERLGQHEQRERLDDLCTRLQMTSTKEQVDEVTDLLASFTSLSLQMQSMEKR
UniProt Q02252: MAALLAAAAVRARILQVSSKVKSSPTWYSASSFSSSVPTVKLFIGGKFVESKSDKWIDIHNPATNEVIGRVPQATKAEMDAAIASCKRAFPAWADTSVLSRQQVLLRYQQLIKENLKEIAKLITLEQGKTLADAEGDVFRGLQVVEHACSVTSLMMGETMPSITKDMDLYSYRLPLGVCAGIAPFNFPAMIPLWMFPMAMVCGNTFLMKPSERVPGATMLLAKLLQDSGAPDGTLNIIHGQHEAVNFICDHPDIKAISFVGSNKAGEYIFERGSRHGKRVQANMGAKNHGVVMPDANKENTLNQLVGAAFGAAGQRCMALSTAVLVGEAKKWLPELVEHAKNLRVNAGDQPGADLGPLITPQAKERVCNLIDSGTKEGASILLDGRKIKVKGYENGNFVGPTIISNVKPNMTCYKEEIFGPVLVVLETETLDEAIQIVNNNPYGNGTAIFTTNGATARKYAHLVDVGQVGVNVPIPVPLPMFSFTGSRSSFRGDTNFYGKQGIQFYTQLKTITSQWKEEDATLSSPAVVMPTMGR
UniProt P15144: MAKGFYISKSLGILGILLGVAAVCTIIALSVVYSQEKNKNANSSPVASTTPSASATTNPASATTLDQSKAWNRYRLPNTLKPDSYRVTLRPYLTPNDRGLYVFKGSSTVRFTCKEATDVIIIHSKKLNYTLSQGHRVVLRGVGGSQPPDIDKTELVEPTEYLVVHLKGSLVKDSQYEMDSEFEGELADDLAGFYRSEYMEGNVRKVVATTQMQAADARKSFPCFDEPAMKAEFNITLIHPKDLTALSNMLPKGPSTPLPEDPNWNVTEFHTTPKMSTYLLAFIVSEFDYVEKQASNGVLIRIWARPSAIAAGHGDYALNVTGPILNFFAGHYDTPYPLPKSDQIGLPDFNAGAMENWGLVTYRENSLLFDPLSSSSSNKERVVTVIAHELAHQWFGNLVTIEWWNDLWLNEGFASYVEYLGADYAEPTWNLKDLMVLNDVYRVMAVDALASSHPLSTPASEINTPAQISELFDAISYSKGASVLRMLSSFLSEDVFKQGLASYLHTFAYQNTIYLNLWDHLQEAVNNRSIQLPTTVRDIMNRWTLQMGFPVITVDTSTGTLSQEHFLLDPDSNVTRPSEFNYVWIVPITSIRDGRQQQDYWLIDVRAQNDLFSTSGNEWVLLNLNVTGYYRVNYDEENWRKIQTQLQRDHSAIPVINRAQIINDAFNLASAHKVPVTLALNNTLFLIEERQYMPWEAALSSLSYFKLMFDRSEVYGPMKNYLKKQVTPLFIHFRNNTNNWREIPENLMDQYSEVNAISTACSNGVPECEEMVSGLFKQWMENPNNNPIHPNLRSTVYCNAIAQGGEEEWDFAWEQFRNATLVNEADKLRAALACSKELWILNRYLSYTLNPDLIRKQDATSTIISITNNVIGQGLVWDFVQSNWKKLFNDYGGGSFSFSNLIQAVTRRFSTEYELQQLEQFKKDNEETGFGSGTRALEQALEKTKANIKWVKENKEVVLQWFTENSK
UniProt P30837: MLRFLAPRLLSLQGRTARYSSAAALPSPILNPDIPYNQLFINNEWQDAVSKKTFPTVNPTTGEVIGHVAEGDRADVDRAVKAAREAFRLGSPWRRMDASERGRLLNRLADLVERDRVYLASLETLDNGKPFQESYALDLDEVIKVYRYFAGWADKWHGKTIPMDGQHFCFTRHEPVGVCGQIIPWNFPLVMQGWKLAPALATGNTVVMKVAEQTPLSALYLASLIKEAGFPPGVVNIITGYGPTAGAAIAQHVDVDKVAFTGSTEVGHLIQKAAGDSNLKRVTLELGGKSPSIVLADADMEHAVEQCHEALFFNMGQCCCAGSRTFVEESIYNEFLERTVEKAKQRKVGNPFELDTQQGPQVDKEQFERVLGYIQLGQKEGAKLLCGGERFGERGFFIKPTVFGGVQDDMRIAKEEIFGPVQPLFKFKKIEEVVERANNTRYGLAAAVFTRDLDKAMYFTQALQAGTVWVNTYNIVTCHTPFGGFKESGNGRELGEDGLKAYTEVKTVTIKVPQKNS
UniProt P58335, whole entry, looked up: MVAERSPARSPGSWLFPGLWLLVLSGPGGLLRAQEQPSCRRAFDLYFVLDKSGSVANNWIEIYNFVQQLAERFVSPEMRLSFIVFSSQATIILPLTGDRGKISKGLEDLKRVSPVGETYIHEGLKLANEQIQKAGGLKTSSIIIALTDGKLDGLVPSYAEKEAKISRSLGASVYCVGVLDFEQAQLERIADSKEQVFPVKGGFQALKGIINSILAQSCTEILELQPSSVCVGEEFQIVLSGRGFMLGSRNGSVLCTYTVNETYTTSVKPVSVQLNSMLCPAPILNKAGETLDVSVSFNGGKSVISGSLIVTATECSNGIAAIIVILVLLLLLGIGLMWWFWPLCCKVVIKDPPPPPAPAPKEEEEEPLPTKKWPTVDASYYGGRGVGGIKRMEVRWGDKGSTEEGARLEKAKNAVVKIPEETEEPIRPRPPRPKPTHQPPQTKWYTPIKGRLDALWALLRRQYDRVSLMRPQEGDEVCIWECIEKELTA
UniProt P53680: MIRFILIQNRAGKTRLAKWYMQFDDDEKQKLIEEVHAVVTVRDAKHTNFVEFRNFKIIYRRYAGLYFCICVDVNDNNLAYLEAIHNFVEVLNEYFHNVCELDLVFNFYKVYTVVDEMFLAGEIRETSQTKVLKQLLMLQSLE
UniProt Q92688: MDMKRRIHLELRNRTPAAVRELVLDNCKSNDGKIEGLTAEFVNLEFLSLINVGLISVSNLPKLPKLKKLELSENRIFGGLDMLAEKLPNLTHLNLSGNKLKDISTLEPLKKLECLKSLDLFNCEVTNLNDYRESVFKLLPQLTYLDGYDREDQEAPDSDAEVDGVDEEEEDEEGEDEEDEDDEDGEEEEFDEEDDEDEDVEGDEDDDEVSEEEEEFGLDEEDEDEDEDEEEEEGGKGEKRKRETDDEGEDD
UniProt Q3SY69: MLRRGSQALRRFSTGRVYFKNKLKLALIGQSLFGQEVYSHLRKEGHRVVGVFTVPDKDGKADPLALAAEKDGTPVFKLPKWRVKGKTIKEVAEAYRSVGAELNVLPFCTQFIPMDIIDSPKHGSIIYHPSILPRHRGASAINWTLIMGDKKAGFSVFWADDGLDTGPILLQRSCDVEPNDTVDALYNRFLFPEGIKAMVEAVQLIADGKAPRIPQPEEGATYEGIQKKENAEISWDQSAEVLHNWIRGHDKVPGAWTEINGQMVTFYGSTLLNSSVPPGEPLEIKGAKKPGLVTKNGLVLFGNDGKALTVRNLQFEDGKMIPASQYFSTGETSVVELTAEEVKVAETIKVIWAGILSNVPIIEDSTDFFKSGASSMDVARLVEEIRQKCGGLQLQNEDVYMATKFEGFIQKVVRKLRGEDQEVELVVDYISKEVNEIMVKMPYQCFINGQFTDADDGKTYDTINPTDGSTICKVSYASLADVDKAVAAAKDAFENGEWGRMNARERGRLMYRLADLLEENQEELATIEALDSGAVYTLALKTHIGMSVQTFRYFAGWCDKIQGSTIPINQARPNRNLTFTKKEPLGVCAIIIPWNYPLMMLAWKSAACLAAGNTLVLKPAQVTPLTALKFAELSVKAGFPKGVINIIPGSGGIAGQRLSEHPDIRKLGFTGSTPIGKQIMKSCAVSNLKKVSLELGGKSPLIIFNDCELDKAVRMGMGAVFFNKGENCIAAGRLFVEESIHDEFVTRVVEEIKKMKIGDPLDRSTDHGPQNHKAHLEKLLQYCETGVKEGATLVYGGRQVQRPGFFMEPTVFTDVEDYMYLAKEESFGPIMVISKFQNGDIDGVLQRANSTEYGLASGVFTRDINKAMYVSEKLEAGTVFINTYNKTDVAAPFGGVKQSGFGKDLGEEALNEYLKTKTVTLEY
UniProt Q13367: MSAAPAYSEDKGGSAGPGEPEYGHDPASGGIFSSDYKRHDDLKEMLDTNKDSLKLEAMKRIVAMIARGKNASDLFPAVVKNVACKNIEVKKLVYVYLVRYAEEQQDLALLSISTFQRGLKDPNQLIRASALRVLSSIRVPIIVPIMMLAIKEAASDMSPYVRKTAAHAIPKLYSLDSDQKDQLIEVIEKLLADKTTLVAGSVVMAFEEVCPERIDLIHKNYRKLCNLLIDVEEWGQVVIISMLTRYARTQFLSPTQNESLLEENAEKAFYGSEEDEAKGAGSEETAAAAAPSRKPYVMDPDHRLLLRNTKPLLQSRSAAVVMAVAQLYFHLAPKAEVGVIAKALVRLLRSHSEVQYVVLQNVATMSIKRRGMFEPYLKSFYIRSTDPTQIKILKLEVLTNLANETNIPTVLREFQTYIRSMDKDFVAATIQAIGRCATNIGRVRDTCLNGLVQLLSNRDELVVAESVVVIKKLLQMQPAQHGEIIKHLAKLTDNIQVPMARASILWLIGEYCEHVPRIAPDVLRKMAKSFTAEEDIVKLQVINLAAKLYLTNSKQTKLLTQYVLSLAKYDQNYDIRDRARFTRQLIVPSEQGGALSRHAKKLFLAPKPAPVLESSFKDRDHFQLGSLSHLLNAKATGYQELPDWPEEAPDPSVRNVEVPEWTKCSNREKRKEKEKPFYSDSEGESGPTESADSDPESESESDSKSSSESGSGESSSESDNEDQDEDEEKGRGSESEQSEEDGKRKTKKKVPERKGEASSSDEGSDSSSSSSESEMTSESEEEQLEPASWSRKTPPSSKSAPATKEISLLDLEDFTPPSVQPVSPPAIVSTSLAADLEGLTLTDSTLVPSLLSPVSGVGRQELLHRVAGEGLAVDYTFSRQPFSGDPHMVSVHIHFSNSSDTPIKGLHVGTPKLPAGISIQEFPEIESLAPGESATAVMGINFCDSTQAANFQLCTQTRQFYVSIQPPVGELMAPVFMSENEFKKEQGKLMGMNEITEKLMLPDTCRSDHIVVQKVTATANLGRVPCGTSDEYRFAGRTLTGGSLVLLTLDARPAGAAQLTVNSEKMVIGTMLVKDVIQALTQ
UniProt O94788: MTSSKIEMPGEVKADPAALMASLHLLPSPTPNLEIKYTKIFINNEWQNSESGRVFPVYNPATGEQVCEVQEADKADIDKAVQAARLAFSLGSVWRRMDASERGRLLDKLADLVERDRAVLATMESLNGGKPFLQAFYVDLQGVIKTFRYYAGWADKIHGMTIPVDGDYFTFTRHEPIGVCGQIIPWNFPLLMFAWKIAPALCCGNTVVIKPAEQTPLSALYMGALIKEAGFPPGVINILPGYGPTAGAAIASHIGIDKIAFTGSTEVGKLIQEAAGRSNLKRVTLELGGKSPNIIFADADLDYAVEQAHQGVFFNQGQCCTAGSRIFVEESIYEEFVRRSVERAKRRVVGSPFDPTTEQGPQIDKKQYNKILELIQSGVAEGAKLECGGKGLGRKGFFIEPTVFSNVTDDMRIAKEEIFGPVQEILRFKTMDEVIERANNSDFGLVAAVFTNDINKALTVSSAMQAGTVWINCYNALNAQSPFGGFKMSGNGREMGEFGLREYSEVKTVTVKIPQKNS
UniProt P12429: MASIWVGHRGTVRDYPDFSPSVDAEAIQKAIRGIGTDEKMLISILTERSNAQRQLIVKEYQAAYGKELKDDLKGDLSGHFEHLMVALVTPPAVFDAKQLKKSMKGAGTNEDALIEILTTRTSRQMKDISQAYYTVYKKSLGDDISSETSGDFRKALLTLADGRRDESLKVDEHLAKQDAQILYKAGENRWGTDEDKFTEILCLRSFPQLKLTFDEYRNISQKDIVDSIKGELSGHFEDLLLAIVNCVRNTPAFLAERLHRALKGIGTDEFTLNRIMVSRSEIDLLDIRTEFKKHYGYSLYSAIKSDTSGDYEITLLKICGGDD
UniProt Q9UM13, whole entry, looked up: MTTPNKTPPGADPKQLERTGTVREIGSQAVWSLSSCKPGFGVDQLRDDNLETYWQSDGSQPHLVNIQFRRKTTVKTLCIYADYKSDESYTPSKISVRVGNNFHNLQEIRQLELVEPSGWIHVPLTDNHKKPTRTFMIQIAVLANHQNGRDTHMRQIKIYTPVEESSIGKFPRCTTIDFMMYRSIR

The list shows a part of the results.

Compound in one assay: CCn1c(C(=O)N(C2CC2)C2CC2)cc2c3c(ncn3C)c(Nc3cc(C)n(C)n3)nc21
Description: log2 fold change, soluble protein after heating vs DMSO (PISA); higher = thermal stabilisation; K562 lysate, 10 uM; active = over 0.2 and 3.5 SD of the protein, either way, in both replicates (recomputed). In outline:
(§1)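 Soluble protein was defined as the supernatant remaining after 21,000xg for 90 min, following pooling of heated aliquots and adjustment to 0.5% NP-40 at 4°C. Before that, crude K562 extract at 1 mg/mL protein in PBS pH 7.4 with 1 mM MgCl2 was treated with 10 μM compound for 30 min and heated for 3 min across 48°C-58°C. Quantification used TMTpro 16plex LC-MS/MS with channel sums equalised, and values are log-two fold changes in thermal stability relative to solvent controls from duplicates.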
In the case of ANKRD54 (UniProt Q6NXT1), the log2 fold change is inactive: -0.005.

On to ALDH6A1 (UniProt Q02252), for which the log2 fold change was inactive: 0.015.

For the target ALKBH3 (UniProt Q96Q83), the log2 fold change was inactive: -0.066.

AMD1 (UniProt P17707): the log2 fold change was inactive: 0.117.

ANPEP (UniProt P15144): the log2 fold change was inactive: -0.041.

On to ANXA11 (UniProt P50995), for which the log2 fold change was inactive: 0.044.

For the target ALDH1A1 (UniProt P00352), the log2 fold change was inactive: -0.052.

As to ALDH1B1 (UniProt P30837), the log2 fold change was inactive: -0.062.

With ANK1 isoform 14 (UniProt P16157), the log2 fold change is inactive: 0.038.

On to AP3S1 (UniProt Q92572), for which the log2 fold change was inactive: -0.004.

As for ANKRD28 (UniProt O15084), the log2 fold change is inactive: 0.02.

Take ALS2 (UniProt Q96Q42): the log2 fold change was inactive: 0.06.

Regarding ANTXR2 isoform 4 (UniProt P58335), the log2 fold change was inactive: -0.031.

For the target ANAPC4 isoform 3 (UniProt Q9UJX5), the log2 fold change was inactive: -0.005.

Regarding ALMS1 (UniProt Q8TCU4), the log2 fold change was inactive: -0.024.

Take AKT1S1 isoform 3 (UniProt Q96B36): the log2 fold change is inactive: 0.026.

ALDH18A1 (UniProt P54886): the log2 fold change is inactive: 0.036.

Regarding AP2S1 (UniProt P53680), the log2 fold change was inactive: 0.01.

AP3D1 isoform 5 (UniProt O14617): the log2 fold change was inactive: 0.002.

With AP1B1 (UniProt Q10567), the log2 fold change was inactive: 0.005.

As to ALG2 (UniProt Q9H553), the log2 fold change was inactive: 0.068.

Regarding ALDH2 (UniProt P05091), the log2 fold change is inactive: -0.011.

In the case of ANP32B (UniProt Q92688), the log2 fold change was inactive: -0.009.

AP1G2 (UniProt O75843): the log2 fold change is inactive: -0.003.

As for ANGEL2 (UniProt Q5VTE6), the log2 fold change is inactive: -0.103.

In the case of ANKRD13A (UniProt Q8IZ07), the log2 fold change is inactive: -0.023.

For the target ALDH1L2 (UniProt Q3SY69), the log2 fold change was inactive: 0.007.

Consider ALAD (UniProt P13716), for which the log2 fold change is inactive: -0.04.

As to AP3B2 isoform 4 (UniProt Q13367), the log2 fold change is inactive: 0.014.

Take ANAPC2 (UniProt Q9UJX6): the log2 fold change was inactive: 0.002.

ALDH1A2 (UniProt O94788): the log2 fold change is inactive: -0.015.

For the target ANXA3 (UniProt P12429), the log2 fold change is inactive: 0.015.

Turning to ANKRD27 (UniProt Q96NW4), the log2 fold change is inactive: 0.001.

On to ANAPC10 (UniProt Q9UM13), for which the log2 fold change was inactive: -0.027.

As to ALG1 (UniProt Q9BT22), the log2 fold change is inactive: -0.017.

Compound in a further assay: CCn1cc(-c2ccnc3[nH]c(-c4cccc(CN(C)C)c4)cc23)c(-c2ccc(NC(=O)N(C)C)cc2)n1
Described as above. In outline:
as §1
Turning to ANKRD54 (UniProt Q6NXT1), the log2 fold change is inactive: 0.004.

With ALDH6A1 (UniProt Q02252), the log2 fold change was inactive: -0.111.

For ALKBH3 (UniProt Q96Q83), the log2 fold change is inactive: 0.187.

In the case of AMD1 (UniProt P17707), the log2 fold change was inactive: -0.129.

As to ANPEP (UniProt P15144), the log2 fold change is inactive: -0.178.

Regarding ANXA11 (UniProt P50995), the log2 fold change is inactive: -0.049.

With ALDH1A1 (UniProt P00352), the log2 fold change was inactive: 0.051.

ALDH1B1 (UniProt P30837): the log2 fold change is inactive: -0.015.

As to ANK1 isoform 14 (UniProt P16157), the log2 fold change was inactive: -0.013.

For the target AP3S1 (UniProt Q92572), the log2 fold change was inactive: -0.113.

For the target ANKRD28 (UniProt O15084), the log2 fold change was inactive: 0.011.

With ALS2 (UniProt Q96Q42), the log2 fold change was inactive: -0.106.

On to ANTXR2 isoform 4 (UniProt P58335), for which the log2 fold change is inactive: -0.111.

With ANAPC4 isoform 3 (UniProt Q9UJX5), the log2 fold change was inactive: -0.022.

Consider ALMS1 (UniProt Q8TCU4), for which the log2 fold change is inactive: -0.054.

For AKT1S1 isoform 3 (UniProt Q96B36), the log2 fold change is inactive: -0.002.

ALDH18A1 (UniProt P54886): the log2 fold change was inactive: 0.009.

As to AP2S1 (UniProt P53680), the log2 fold change was inactive: -0.056.

Take AP3D1 isoform 5 (UniProt O14617): the log2 fold change was inactive: -0.08.

Regarding AP1B1 (UniProt Q10567), the log2 fold change was inactive: -0.052.

Consider ALG2 (UniProt Q9H553), for which the log2 fold change is inactive: -0.08.

As for ALDH2 (UniProt P05091), the log2 fold change was inactive: 0.007.

Regarding ANP32B (UniProt Q92688), the log2 fold change is inactive: -0.013.

Turning to AP1G2 (UniProt O75843), the log2 fold change was inactive: -0.007.

As for ANGEL2 (UniProt Q5VTE6), the log2 fold change is inactive: -0.068.

In the case of ANKRD13A (UniProt Q8IZ07), the log2 fold change is inactive: -0.053.

Regarding ALDH1L2 (UniProt Q3SY69), the log2 fold change is inactive: -0.089.

Take ALAD (UniProt P13716): the log2 fold change was inactive: -0.077.

Take AP3B2 isoform 4 (UniProt Q13367): the log2 fold change is inactive: -0.078.

Turning to ANAPC2 (UniProt Q9UJX6), the log2 fold change is inactive: -0.078.

ALDH1A2 (UniProt O94788): the log2 fold change was inactive: -0.016.

For ANXA3 (UniProt P12429), the log2 fold change is inactive: -0.025.

As to ANKRD27 (UniProt Q96NW4), the log2 fold change was inactive: -0.042.

For the target ANAPC10 (UniProt Q9UM13), the log2 fold change is inactive: 0.

For ALG1 (UniProt Q9BT22), the log2 fold change is inactive: -0.12.
